The assay concerns the target T1, GST-Δ110-128 (Toxoplasma gondii) (UniProt B6KEU8).
T1 sequence: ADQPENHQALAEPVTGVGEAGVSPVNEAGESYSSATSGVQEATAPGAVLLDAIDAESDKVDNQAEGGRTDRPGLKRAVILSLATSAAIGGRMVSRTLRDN
In words: pull-down; 60 μg of recombinant GST protein bound to glutathione-Sepharose beads, incubated with pre-cleared lysate of GRA23_3×HA parasites in buffer B for 1 h at room temperature; anti-HA immunoblot; only the target purified. (A western blot detects proteins with antibodies after separation by electrophoresis.)

No constants are given. Whether binding was seen depends on the method and setting. In cells and extracts the contact can be indirect. Tags and fused reporters may be left off the sequences shown.

For TgGRA23_3×HA (Toxoplasma gondii), the binding entry is “no binding”.

Values taken from article PMC6451337, “The Toxoplasma gondii dense granule protein TgGRA3 interacts with host Golgi and dysregulates anterograde transport” (Biology Open, 2019).
